Some entries share one result that the patent states for a list of compounds. Some ranges recur; such a range may be that of the whole group of compounds.
Tests used:
[1] = Fluorescence change in the presence of DMPC and TAG versus PBS; assay type: physicochemical; details: PBS pH 7.2; AIEgen 1 μM, DMPC 40 μg/mL, TAG 80 μg/mL
[2] = Two-photon absorption (TPA) cross section of aggregate suspensions, fluorescein as standard; assay type: physicochemical; details: at 860 nm; aggregate suspensions in H2O containing 10% THF
Protocol: With fluorescein as the standard, the TPA cross sections (δ) of NAP AIEgens at different wavelengths were also measured (FIG. 8F). […] To further acquire the TPEF, NAP AIEgens in solid states were directly excited at 800 nm (intensity of about 0.35 mW).

[3] = system: HeLa cells; experiment: Photostability under continuous confocal laser irradiation; assay type: cell-based; details: continuous irradiation for 10 min, 405 nm laser, power 12%
Protocol: FIG. 20 is a graph depicting photostability of NAP AIEgens and Nile Red in HeLa cells under continuous irradiation (irradiation conditions: for NAP AIEgens, 405 nm laser, laser power of 12%; for Nile Red, 543 nm laser, laser power of 12%).
Considering the above-mentioned excellent bioimaging characteristics of these NAP AIEgens, further experiments were performed to evaluate their photostability and cytotoxicity. The photostability of NAP AIEgens was evaluated by continuous irradiation with confocal lasers, and data was collected every second. […] Furthermore, standard MTT (3-(4,5-dimethylthiazol-2-yl)-2,5-diphenyl-2H-tetrazolium) assays were performed to evaluate the cytotoxicity of NAP AIEgens in live cells.

Row | Structure (SMILES) | Fluorescence intensity enhancement with DMPC and TAG compared with PBS [1] | TPA cross section (δ) [2] | Initial fluorescence intensity remaining [3]
1 | COc1c(/C=C(\C#N)c2cc(C(F)(F)F)cc(C(F)(F)F)c2)ccc2cc(N(C)C)ccc12 [NAP-CF3] | 1.7˜3.6 fold | 45-100 GM | over 90%
2 | COc1c(/C=C(\C#N)c2ccc(Br)cc2)ccc2cc(N(C)C)ccc12 [NAP-Br] | 1.7˜3.6 fold | 45-100 GM | 
3 | COc1c(/C=C(\C#N)c2ccc(-c3ccccc3)cc2)ccc2cc(N(C)C)ccc12 [NAP-Ph] | 1.7˜3.6 fold | 45-100 GM | 
4 | COc1c(/C=C(\C#N)c2ccc(-c3ccncc3)cc2)ccc2cc(N(C)C)ccc12 [NAP-Py] | 1.7˜3.6 fold | 45-100 GM | over 90%
